Results: publication PMC7075897

T1: Usp fused to APEX2 through a 25 nm GS linker, marked with 3xFLAG (Drosophila melanogaster) (UniProt P20153)
T1 sequence: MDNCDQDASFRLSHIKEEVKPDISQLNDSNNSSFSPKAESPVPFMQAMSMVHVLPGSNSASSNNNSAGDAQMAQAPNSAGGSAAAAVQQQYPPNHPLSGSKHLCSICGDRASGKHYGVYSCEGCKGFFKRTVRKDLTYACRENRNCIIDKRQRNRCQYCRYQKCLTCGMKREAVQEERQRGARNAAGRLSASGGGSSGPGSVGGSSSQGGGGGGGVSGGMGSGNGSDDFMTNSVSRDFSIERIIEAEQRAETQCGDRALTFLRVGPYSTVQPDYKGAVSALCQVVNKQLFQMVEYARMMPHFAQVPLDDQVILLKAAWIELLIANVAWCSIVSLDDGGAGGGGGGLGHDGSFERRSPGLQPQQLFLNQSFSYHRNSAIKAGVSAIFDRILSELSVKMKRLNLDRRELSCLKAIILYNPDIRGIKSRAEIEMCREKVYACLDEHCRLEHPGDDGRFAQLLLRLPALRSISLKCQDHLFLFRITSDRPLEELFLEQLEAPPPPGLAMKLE

T2: EcR (isoform A) fused to APEX2 through a 25 nm GS linker, marked with 3xFLAG (Drosophila melanogaster) (UniProt P34021)
T2 sequence: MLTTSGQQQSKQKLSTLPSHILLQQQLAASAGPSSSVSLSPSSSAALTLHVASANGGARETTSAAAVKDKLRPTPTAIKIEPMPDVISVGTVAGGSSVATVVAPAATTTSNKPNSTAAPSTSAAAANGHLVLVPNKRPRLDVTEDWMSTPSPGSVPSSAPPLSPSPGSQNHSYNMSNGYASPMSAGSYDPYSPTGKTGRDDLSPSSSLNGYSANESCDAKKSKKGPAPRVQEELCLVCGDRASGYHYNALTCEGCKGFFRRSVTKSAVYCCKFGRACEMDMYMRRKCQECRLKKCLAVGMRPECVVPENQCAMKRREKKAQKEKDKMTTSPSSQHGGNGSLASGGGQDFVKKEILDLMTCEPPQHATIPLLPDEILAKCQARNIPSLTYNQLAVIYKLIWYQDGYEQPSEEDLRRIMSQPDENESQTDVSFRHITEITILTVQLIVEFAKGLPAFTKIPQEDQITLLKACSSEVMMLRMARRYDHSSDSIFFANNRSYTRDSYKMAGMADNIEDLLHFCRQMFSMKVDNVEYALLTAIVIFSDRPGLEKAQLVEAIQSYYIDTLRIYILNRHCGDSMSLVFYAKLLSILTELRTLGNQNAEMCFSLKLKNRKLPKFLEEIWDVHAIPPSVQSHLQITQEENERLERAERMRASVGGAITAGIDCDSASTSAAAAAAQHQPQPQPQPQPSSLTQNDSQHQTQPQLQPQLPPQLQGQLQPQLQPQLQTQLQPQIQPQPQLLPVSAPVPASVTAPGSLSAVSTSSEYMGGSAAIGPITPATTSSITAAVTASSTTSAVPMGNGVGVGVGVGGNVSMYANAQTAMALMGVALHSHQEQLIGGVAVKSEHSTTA

B1: REG (protein, UniProt Q9V3P3 1-245)
chain: MPNDTVVKVQEYKDSLILKAELLITKGFPENIVRLNELLATPIFNERNFEEVHQDLNIPVLPPLLVKNELEDRDSLPTKRQRVDVIVSGQPVMGLPAGTVPCNKPLCEMIKVVKPIIRKLVEDSNLLKMWISFMIPKIEDGNNFGVSIQEDTLAEIQTVESEAAAFFDQISRYFLSRAKVVSKVAKYPHIDDYRRAVVELDEKEYLSLWLVVCEVRNRYSSLHDIVIKNLEKLKKPRSSNTESLY
B2: CG10489 (protein, UniProt Q9VRQ7 1-525)
chain: MDVDLLPLRKRITNTFKLCGFLIRSENSSYLAEQLLPFDAAERDKWLTVITENLQSQKLLTPHVERAALEKAINELNRVGLDEGETVFALIDAFTVPRFRYNQRIKKFELDTQPRQLLTAPRMKSDYMQQRYAMLLQKTLRHDLFAPAVIQDGVGAEAQAKKFKLQFAENLLATSAMKEAVVLGLLTQLKEGKFYVEDPTGCVQLDLTGARFHAGFFCEGCFVLAEGNYNNGVLKVDGLGFPPAEPANSSRAFFGTANTWGGESAKLLKYSAGLQELERTNTETTIVFLSDVRLDLPVVMEKLRQLFVGYDSCPPQAIVLMGPFTASTRNHHELRHHLDALGGLAAGCEQLKKQTDLILVPSSEDPTAPNILPRAPIPECLAAGLLKAWPRTQLATNPCRLQYCTQQIVVCRLDLMAKFCRNTLHFPEDTSQIEQHFARTIVCQGHLVPIHPIAMPVHWDYDPALWLYPLPDLIVMGDSCQSFSSSQHGCTVLNTGSFVKSKFAFKVYIPATRTIEDSEIPDELE
B3: Ars2 (protein, UniProt Q9V9K7 1-943)
chain: MGDSDDEYDRKRRDKFRGERESYRTERRDDRRPVGGSAGARDEWAERNPFRGGASAGGGGARHRPDYSDYRGPGARPRYGSPVRDLPPAKRMRPDWGDGDVRANPRFGGYDPYLMQAWNDHYQSMHSAYSHGGHAPPVRESIGGGGGDTLTQPAMLNLKQFLDTQDENISDSEVMRKYTEYKTDFKRQQLNEFFVAHKDEEWFKNKYHPEDSVKRSEEQRGFLQRRTDVFMELLENGTIGSVKVDSSQADALIRVLDTCVIKLEGGTDEDLKVLDEKPKDPVVYERKAEQMQSVKEVEKTINSPKEEMSEADPVSTQRKPVRPVNSDGENWDDDDAENSAPKKELAEDSKDSDSKPEDKQLNKKKTKKRKRNSSDDDSSSSESSSSSDEEKLKEKYDVEDGLRAEQKTEAEKDRQEATKAKQGPQSPKLDEDEGNENTEPKGLDSKINTYEEIDNTLKSPEISSNPIKNTDNGDGSKVEEDGEKPSVGKDKVVETETIDLDKVKDGQPRALHRTSSIFLRNLAPSITRSEIEAVCNRFSGYLRVAIADPLVERRWYRRGWITFMRDVNIKEICWGLNNQRLRDCEMGAIVNRDLSRRVRPANGITAHKQVVRSDIKLCAKIALNLDEKFRLWAEGPKDDSNSARANESSENGSGSTYGFNSQNPVLQNITDYLIEEASAEEEELLGLTGENKDTEGEPIERDEQLISVLDRLVLYLRIVHSVDYYNHCEYPYEDEMPNRCGIIHARGPPPVRVTNNDVQEYIKIYESKLQQFLTKTVPLSDEEIKNLGAKDAETEVEKFVQANTQELAKDKWLCPLSGKKFKGPEFIRKHIFNKHEEKVDEVRKEVQYFNNYLRDPKRPQLPEHPGTSKRPESESARGGGGGYRPPMYPPFSAMPYGFGPPMMGGGRGGRNFPPARRELPLEHQRRLIGYHDLDAPANSDMFD
B4: RnrL (protein, UniProt P48591 1-812)
chain: MLKNKSMKTSKLYVIKRDGRQEEVHFDKITSRIQKLCYNLNMDFVDPVTITLQVINGLYCGVTTQELDNLAAEIAAGLTCNHPDYAILAARIAVSNLHKETKKAFSDVFEDLYNHVNKETNQKVPLVSEFHYNVVKKNATRLNSSIIYDRDFGYNYFGFKTLERSYLLKRNGKIAERPQHMLMRVAIGIHGEDIDAAVETYNLLSERYFTHASPTLFAAATNRPQLSSCFLLTMTADSIEGIFKSVEQCAMISKSAGGIGLNVHCIRAKGTSICGTNGTSNGLVPMLRVFNNVARYVDQGGGKRPGAFAIYLEPWHSDVFEFLELKKNTGKEENRARDLFYALWIPDLFMKRVEANGDWSLMCPHKCPGLHDVWGDEFEKLYEKYEQEGRANRTVKAQSLWFAIIEAQVETGNPYMLFKDACNRKSNQQNVGTIKCSNLCTEIVEYSAPDEIAVCNLASIALNMFVTPEKTYDFKKLKEVTKIVTKNLNKIIDINYYPLPEARKSNLRHRPVGIGIQGFADALILMRFPYESEEAGLLNQQIFETIYYGALEASCELAQTEGPYETYEGSPVSKGILQYDMWDKVPTNLWDWQKLKESIRMHGVRNSLLVAPMPTASTAQIMGNNESFEPYTTNIYTRRVLSGEFQVVNHHLLRDLTELDLWDDDMKNQIISSRGSIQNIETIPPKVRDLYKTVWEISVKSTIKMAADRGAFIDQSQSFNIHVAEPNYGKLTSIHFYSWKAGLKTGMYYLRTKPAANAIQFTVNKKQGAVSMNGQNGTAEGSPQKYEEDRERKMADMVCSLENKDACMSCGS
B5: Mcm5 (protein, UniProt Q9VGW6 1-733)
chain: MEGFDDAGVFFSDNFGGDNQQDAQINLQAVKKKYKEFIRTFNEENFFYKYRDTLKRNYLNGRYFLEIEMEDLVGFDETLADKLNKQPTEHLEIFEEAAREVADEITAPRPEHEEHMHDIQILLSSNANPTNIRQLKSDCVSKLVKIAGIIVAASGISAKATRMSIQCLSCSTVIPNLKVNPGLEGYALPRKCNTEQAGRPKCPLDPFFIMPDKCKCVDFQTLKLQELPDFVPQGEIPRHLQLFCDRSLCERVVPGNRVLIQGIYSIRKVGKPSRRDGREKAVVGVRAPYMRVVGITVDSEGAGAISRYSNITSDEEEHFRRMAASGDIYERLSQSLAPSIFGSRDIKKAITCMLFGGSRKRLPDGLCRRGDINVLLLGDPGTAKSQLLKFVEKVAPIAVYTSGKGSSAAGLTASVMKDPQTRNFVMEGGAMVLADGGVVCIDEFDKMREDDRVAIHEAMEQQTISIAKAGITTTLNSRCSVLAAANSIFGRWDDTKGEENIDFMPTILSRFDMIFIVKDIHDESRDITLAKHIINVHLSSNKSAPSEPAEGEISLSTFKKYIHYCRTHCGPRLSEAAGEKLKSRYVLMRSGAGQQEKASDKRLSIPITVRQLEAVIRISESLAKIRLQPFATDEHVNEALRLFQVSTLDAAMTGSLAGAEGFTTEEDQETLNRIEKQLKRRFAIGSQVSEQNILQDFLRQKYEERTVMKVIHTMIRRGELQHRMQRKMLYRIC
B6: HDAC4 (protein, UniProt Q9VYF3 1-1252)
chain: MSSPDDRIPIHDLPSEAGSDERLLHITPATLTLDFKPHPAVDIDQQIMELKKSQELQKQRLINSFQEQSKQMELEHKLQLEHKYQFAVNSHGAFQELRNESMVTAAAAAVAQEQHRQQLHQQQQQHQQQQQQQQHQQQQQQQQARGRDGMKLKQNCSANASPEVKQILNCFILSRKSQAAASNGTTTTSPYRNRGVVKSSSGESLPAGTVTSAHPYKIPQPPPSLLKYESDFPLRKTASEPNLLKIRLKQSVIERKARIGGPAGARRHERLLQAAQRRQQKNSVLTNCNSTPDSGPNSPPSAAALAVGVVGSRGSPTSAPIQEENEEGSQYQPGQRSSINDLPLFSSPSLPNISLGRPHLPNSAQAHAQVNAQVAAQAQAQAQAQAQAHAMFAALAAAQGGCGQPGYYNPLGMAFVGRQPAPLAMIPATGIAPQQPSPVVRSASATSTSSSQASLVGDVAPPQAHAASTILPSSSSYMQQLGSVAGSGVNLHAAAVAAAAAAAAAAGSLPPTNSHGHGHGSHAHPHPHAHGHGHGHGHGIYAGHQHNVPITDAQVAQVHLHKQGHRPLGRTQSAPLPLGHPMLTGAVQLNVVQTHYENSEAERQAYEHQVVNQKVRQTVLTRSGAAAAAAAAAGVSVVREAQLKEEDDDSAAEVMDLTDKKKPPKTVLTSTIATSTSQNLPEALAAAAAAAAYRAPHNASSNSASATKSGIKLRDQEYLQQQREQLLLLQQEEELAKSLMRPLSRTLSSPLVPLGPHGLSQIPDTGQQPAPIATSSSADHIPPVNLSLPHRQHRQLMSTLYASQLRNHQPSASGSPPHKVTTGLAYDPLMLKHSCICGDNAQHPEHSGRLQSVWARLNETDLVKRCDRLRARKATQEELQTVHTEAHAMLFGSNQCQLSRPKLENTLSASFVRLSCGGLGVDLDTTWNEHHTATAARMAAGCVIDLALKTAKGDLRNGFAVVRPPGHHAEANLAMGFCFFNSIAIAAKLLRQRMPEVRRILIVDWDVHHGNGTQQAFYQSPDILYLSIHRHDDGNFFPGTGGPTECGSGAGLGFNVNISWSGALNPPLGDAEYIAAFRTVVMPIARSFNPDIVLVSSGFDAATGHPAPLGGYHVSPACFGFMTRELLQLANGKVVLALEGGYDLAAICDSAQECVRALLGDPAAPIAKAELERPPCQNAINTLQKTIAIQQTHWPCVRMLEHTVGLSALETLKVEHDESETINAMAGLSMQSMHRTLSRDDSEEPMDQDETK

Target: T1, Usp fused to APEX2 through a 25 nm GS linker, marked with 3xFLAG (Drosophila melanogaster)
Test: proximity labelling; APEX2 fused to EcR or Usp, stably expressed in S2 cells; 20E or DMSO 1 h, biotin-phenol 30 min, 1 mM H2O2 5 min; nuclear extract, Streptavidin-Agarose precipitation, LC-MS/MS

binding, binds:
B1
B2
B3
B4

Target: T2, EcR (isoform A) fused to APEX2 through a 25 nm GS linker, marked with 3xFLAG (Drosophila melanogaster)
Test: as above

binding, binds:
B1
B2
B5
B3
B4
B6

No constants are given. Whether binding was seen depends on the method and setting. In cells and extracts the contact can be indirect. A yes stands for co-enrichment or nearness to the bait. Other partners may have been found. Where a sequence is shown, tags or fusion partners need not be part of it.
